Earlier results, collected in patent US8088433B2, “Mononuclearly filled microcapsules” (Symrise AG, priority 2001, dated 2012).
At least one compound was matched to its structure with a doubt left.

Settings: n-octanol/water distribution coefficient, log10[co/cw]; grouping of flavor substances by difficulty of encapsulation; cited from earlier work

In the case of COc1ccc(C=O)cc1 [anisaldehyde], the logKo/w is listed as 0.95.
